PubChem BioAssay AID1508597, Cure First, 2020
Assay: 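Genes whose silencing sensitises or protects ovarian cancer cells against rucaparib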 (primary screen). Cells: human ovarian carcinoma lines grown from tumours: OCI-P5x (papillary serous) and OCI-C5x (clear cell). Knock-down reagent: siRNA pool against human genes, 1.25 pmol siRNA per well. Duration: 72 h or 96 h, depending on the cell culture. Challenge: rucaparib 20 µM (about IC30) or vehicle, present until read-out. Detection: 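ATP luminescence measured at 72 or 96 h according to the culture, then normalised and expressed as percent viability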. Scale: viability, normalised: higher = more viable cells remaining. Call rule: 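a well counts as a hit if its normalised viability is under 80 percent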. Meaning of the calls: active = viability under 80%; inactive = viability 80% or more.
Shown is one part, drawn at random, of about 2,100 reagents tested. 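Calls flag viability under 80% in either arm, not effects specific to rucaparib; the reference for percent is not stated.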 The record does not give: the 100% reference.

HSD17B4, rucaparib or vehicle Rucaparib, cell line OCI-C5x (clear cell), technical replicate 1 → viability, normalised (%) = 53.1; activity call = active
HSD17B4, rucaparib or vehicle Rucaparib, cell line OCI-C5x (clear cell), technical replicate 2 → viability, normalised (%) = 65; activity call = active
HSD17B4, rucaparib or vehicle Rucaparib, cell line OCI-C5x (clear cell), technical replicate 3 → viability, normalised (%) = 70.3; activity call = active
HSD17B4, rucaparib or vehicle Rucaparib, cell line OCI-P5x (serous), technical replicate 1 → viability, normalised (%) = 61.4; activity call = active
HSD17B4, rucaparib or vehicle Rucaparib, cell line OCI-P5x (serous), technical replicate 2 → viability, normalised (%) = 65; activity call = active
HSD17B4, rucaparib or vehicle Rucaparib, cell line OCI-P5x (serous), technical replicate 3 → viability, normalised (%) = 83.6; activity call = inactive
HSD17B4, rucaparib or vehicle Vehicle, cell line OCI-C5x (clear cell), technical replicate 1 → viability, normalised (%) = 74.9; activity call = active
HSD17B4, rucaparib or vehicle Vehicle, cell line OCI-C5x (clear cell), technical replicate 2 → viability, normalised (%) = 60.2; activity call = active
HSD17B4, rucaparib or vehicle Vehicle, cell line OCI-C5x (clear cell), technical replicate 3 → viability, normalised (%) = 73; activity call = active
HSD17B4, rucaparib or vehicle Vehicle, cell line OCI-P5x (serous), technical replicate 1 → viability, normalised (%) = 81.9; activity call = inactive
HSD17B4, rucaparib or vehicle Vehicle, cell line OCI-P5x (serous), technical replicate 2 → viability, normalised (%) = 92.5; activity call = inactive
HSD17B4, rucaparib or vehicle Vehicle, cell line OCI-P5x (serous), technical replicate 3 → viability, normalised (%) = 90.7; activity call = inactive
CHMP4A, rucaparib or vehicle Rucaparib, cell line OCI-C5x (clear cell), technical replicate 1 → viability, normalised (%) = 59.5; activity call = active
CHMP4A, rucaparib or vehicle Rucaparib, cell line OCI-C5x (clear cell), technical replicate 2 → viability, normalised (%) = 56.5; activity call = active
CHMP4A, rucaparib or vehicle Rucaparib, cell line OCI-C5x (clear cell), technical replicate 3 → viability, normalised (%) = 38.3; activity call = active
CHMP4A, rucaparib or vehicle Rucaparib, cell line OCI-P5x (serous), technical replicate 1 → viability, normalised (%) = 81.3; activity call = inactive
CHMP4A, rucaparib or vehicle Rucaparib, cell line OCI-P5x (serous), technical replicate 2 → viability, normalised (%) = 73.7; activity call = active
CHMP4A, rucaparib or vehicle Rucaparib, cell line OCI-P5x (serous), technical replicate 3 → viability, normalised (%) = 73.9; activity call = active
CHMP4A, rucaparib or vehicle Vehicle, cell line OCI-C5x (clear cell), technical replicate 1 → viability, normalised (%) = 47.3; activity call = active
CHMP4A, rucaparib or vehicle Vehicle, cell line OCI-C5x (clear cell), technical replicate 2 → viability, normalised (%) = 50.5; activity call = active
CHMP4A, rucaparib or vehicle Vehicle, cell line OCI-C5x (clear cell), technical replicate 3 → viability, normalised (%) = 57.1; activity call = active
CHMP4A, rucaparib or vehicle Vehicle, cell line OCI-P5x (serous), technical replicate 1 → viability, normalised (%) = 57.1; activity call = active
CHMP4A, rucaparib or vehicle Vehicle, cell line OCI-P5x (serous), technical replicate 2 → viability, normalised (%) = 86.9; activity call = inactive
CHMP4A, rucaparib or vehicle Vehicle, cell line OCI-P5x (serous), technical replicate 3 → viability, normalised (%) = 87.4; activity call = inactive
CKB, rucaparib or vehicle Rucaparib, cell line OCI-C5x (clear cell), technical replicate 1 → viability, normalised (%) = 54.8; activity call = active
CKB, rucaparib or vehicle Rucaparib, cell line OCI-C5x (clear cell), technical replicate 2 → viability, normalised (%) = 69.8; activity call = active
CKB, rucaparib or vehicle Rucaparib, cell line OCI-C5x (clear cell), technical replicate 3 → viability, normalised (%) = 57.6; activity call = active
CKB, rucaparib or vehicle Rucaparib, cell line OCI-P5x (serous), technical replicate 1 → viability, normalised (%) = 95.2; activity call = inactive
CKB, rucaparib or vehicle Rucaparib, cell line OCI-P5x (serous), technical replicate 2 → viability, normalised (%) = 91.4; activity call = inactive
CKB, rucaparib or vehicle Rucaparib, cell line OCI-P5x (serous), technical replicate 3 → viability, normalised (%) = 79.7; activity call = active
CKB, rucaparib or vehicle Vehicle, cell line OCI-C5x (clear cell), technical replicate 1 → viability, normalised (%) = 56.3; activity call = active
CKB, rucaparib or vehicle Vehicle, cell line OCI-C5x (clear cell), technical replicate 2 → viability, normalised (%) = 62.4; activity call = active
CKB, rucaparib or vehicle Vehicle, cell line OCI-C5x (clear cell), technical replicate 3 → viability, normalised (%) = 58.9; activity call = active
CKB, rucaparib or vehicle Vehicle, cell line OCI-P5x (serous), technical replicate 1 → viability, normalised (%) = 114; activity call = inactive
CKB, rucaparib or vehicle Vehicle, cell line OCI-P5x (serous), technical replicate 2 → viability, normalised (%) = 108; activity call = inactive
CKB, rucaparib or vehicle Vehicle, cell line OCI-P5x (serous), technical replicate 3 → viability, normalised (%) = 104; activity call = inactive

Part of the list above in another layout.
target gene | rucaparib or vehicle | cell line | technical replicate | viability, normalised (%) | activity call
HSD17B4 | Vehicle | OCI-P5x (serous) | 1 | 81.9 | inactive
HSD17B4 | Vehicle | OCI-P5x (serous) | 2 | 92.5 | inactive
HSD17B4 | Vehicle | OCI-P5x (serous) | 3 | 90.7 | inactive
